Source: article PMC2740829

Protein sequences, listed by entry. Tags and fused reporters are not part of them. Lines headed by an entry give the natural chain unless they say otherwise; changes in a name come on top. Residues count along the entry.
UniProt O43464: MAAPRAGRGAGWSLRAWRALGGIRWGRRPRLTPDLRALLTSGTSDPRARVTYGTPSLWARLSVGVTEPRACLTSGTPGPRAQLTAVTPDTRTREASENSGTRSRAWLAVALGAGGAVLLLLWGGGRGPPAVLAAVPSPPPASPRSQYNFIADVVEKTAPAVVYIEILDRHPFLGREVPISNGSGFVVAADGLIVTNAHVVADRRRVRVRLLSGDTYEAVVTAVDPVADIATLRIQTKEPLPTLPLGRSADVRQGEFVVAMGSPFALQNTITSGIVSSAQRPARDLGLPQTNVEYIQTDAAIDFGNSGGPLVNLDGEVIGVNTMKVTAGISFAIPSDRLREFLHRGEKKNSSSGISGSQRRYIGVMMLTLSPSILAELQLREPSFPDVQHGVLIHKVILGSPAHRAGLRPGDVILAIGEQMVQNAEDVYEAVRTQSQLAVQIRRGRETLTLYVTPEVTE
UniProt P30101, residues 25-505: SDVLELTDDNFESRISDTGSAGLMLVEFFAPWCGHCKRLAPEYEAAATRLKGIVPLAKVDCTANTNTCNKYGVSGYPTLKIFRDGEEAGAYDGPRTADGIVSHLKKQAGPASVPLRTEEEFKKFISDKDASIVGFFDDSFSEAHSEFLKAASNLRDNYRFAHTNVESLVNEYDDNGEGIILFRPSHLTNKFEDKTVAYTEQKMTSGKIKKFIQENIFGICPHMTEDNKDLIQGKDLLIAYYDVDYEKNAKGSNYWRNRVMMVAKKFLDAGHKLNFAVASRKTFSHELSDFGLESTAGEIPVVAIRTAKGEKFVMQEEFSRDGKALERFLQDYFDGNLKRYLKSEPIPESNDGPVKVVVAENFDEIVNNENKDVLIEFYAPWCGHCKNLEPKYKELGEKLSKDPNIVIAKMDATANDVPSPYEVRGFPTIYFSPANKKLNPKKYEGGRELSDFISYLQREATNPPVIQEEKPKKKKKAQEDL
UniProt P11142: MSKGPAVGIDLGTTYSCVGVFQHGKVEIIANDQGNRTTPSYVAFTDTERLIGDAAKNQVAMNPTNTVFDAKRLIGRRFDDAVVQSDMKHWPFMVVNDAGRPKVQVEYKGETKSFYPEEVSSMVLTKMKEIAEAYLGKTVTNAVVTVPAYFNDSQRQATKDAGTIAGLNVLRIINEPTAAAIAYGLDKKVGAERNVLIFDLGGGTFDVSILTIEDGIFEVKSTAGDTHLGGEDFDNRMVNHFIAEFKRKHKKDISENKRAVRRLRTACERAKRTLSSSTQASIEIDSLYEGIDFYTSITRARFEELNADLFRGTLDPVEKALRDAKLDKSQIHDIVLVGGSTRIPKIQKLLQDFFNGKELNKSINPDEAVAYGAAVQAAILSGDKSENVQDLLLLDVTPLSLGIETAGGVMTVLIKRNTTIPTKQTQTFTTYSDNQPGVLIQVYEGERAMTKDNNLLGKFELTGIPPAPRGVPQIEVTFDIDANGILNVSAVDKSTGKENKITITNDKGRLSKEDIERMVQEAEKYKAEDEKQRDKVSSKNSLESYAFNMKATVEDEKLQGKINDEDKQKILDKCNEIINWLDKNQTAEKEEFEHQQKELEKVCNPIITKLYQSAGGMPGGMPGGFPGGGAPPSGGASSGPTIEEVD

Target: FLAG-tagged OMI protease mutant S306C (inactive active site) (UniProt O43464)
Experiment: affinity purification with mass spectrometry; FLAG-tagged OMI mutants immunoprecipitated with anti-FLAG affinity gel beads from Triton X-100 solubilised mitochondria of transfected HEK293 cells; IEF/2D gel, silver stain; spots seen with S306C but not with S306C/G399S cored, in-gel trypsin digestion and tandem MS

Row | Substance | binding
1 | PDIA3 N-terminal of the glycoprotein chaperone ERp57 (chain A), endogenous (from UniProt P30101 25-505) | binds
2 | HSPA8 Heat shock cognate 71 kDa protein (Heat shock 70 kDa protein 8), endogenous (from UniProt P11142 1-646) | binds

These are yes or no findings as the source states them, for the method shown. Binding seen in cells or lysates may run through a third protein. A yes stands for co-enrichment or nearness to the bait. Other partners may have been found.
